Experimental data from patent EP2177496A1, “New analogs of polysphorin and uses thereof for treating or preventing malaria” (Assistance Publique - Hôpitaux de Paris, priority 2008, dated 2010).

Experiments:
P. falciparum = test: In vitro activity against erythrocytic stage of P. falciparum ([3H]-hypoxanthine incorporation); assay type: cell-based, chloroquine-sensitive (3D7w) clone of P. falciparum; settings: selectivity index = ratio of TC50 to IC50
Method: After 48 hours, [^3H]-hypoxanthine (Amersham) was added to each well and then plates were incubated for 24 hours. Parasites were harvested, and incorporation of radioactivity was determined by liquid scintillation counting (Beckman LS1701, les Ulis, France). The counts-per-minute (cpm) was adjusted relative to controls to obtain percentages of inhibition. […] This estimation was obtained with IC50 estimator software. For the assay, the parasites were synchronized by D-sorbitol treatment.

P. yoelii = test: In vitro activity against hepatic stage of P. yoelii (sporozoite-infected HepG2/CD81 cells or rodent hepatocytes, liver-schizont count); assay type: cell-based, P. yoelii (265 BY strain); settings: selectivity index = ratio of TC50 to IC50
Method: Activity against pre-erythrocytic stages was tested by in vitro assays with the human parasite P. falciparum (NF54 strain) and the rodent parasite P. yoelii (265 BY strain). The rodent parasite P. yoelii is produced in the insectarium of the INSERM Unit U511 and human parasite P. falciparum was obtained from collaboration with R. Sauerwein.
Sporozoites were obtained from infected salivary glands of Anopheles stephensi mosquitoes fed on continuous culture of P. falciparum (coll R. Sauerwein, Netherlands), or on P. yoelii parasitized mice (insectarium of the INSERM Unit U511). After aseptic dissection, salivary glands were homogenized in a glass grinder and diluted in culture medium or sterile phosphate-buffered saline (PBS).
Primary cultures of rodent or human hepatocytes were prepared from liver segments taken from mouse or from adult patients undergoing partial hepatectomy. Hepatocytes were isolated using the two-step enzymatic perfusion technique (Guguen-Guillouzo et al., 1982) and were further purified on a discontinuous Percoll gradient. […] Liver-schizonts were quantified by microscopic examination after fluorescent labeling using a primary mouse antibody directed against Plasmodium heat shock protein-70 (Renia et al., 1990) produced in INSERM unit 511 and a secondary goat anti-mouse antibody conjugated with fluorescein isothiocyanate (Sigma Aldrich).

| SMILES | SI Erythrocytic stage P. falciparum (P. falciparum) | SI Hepatic stage (rodent) P. yoelii (P. yoelii) |
| --- | --- | --- |
| COc1cc(C)cc(OC)c1OC(C)C(O)c1ccc2c(c1)OC(F)(F)O2 (stereo not shown) [drawing 72] | 4.19 | 2.99 |
| COc1cc(C)cc(OC)c1OC(C)C(O)c1ccc2c(c1)OC(F)(F)O2 (stereo not shown) [drawing 73] | 3.99 | 9.55 |
